Changes are numbered by the printed parent chain. No constants are given. Whether binding was seen depends on the method and setting. In cells and extracts the contact can be indirect. Some entries that bind do so weakly or less than the wild type. Sequences can lack the tags named with a protein.
Experiments:
[1] = biological target: T1, Rim21-HA (WT) (S. cerevisiae) (UniProt P48565); assay: co-IP; YOK3632 (rim21Δ DFG16-FLAG) cells with Rim21-HA vectors; lysis buffer 50 mM Tris-HCl pH 7.5, 150 mM NaCl, 1 mM DTT; solubilised with 1% Triton X-100 at 4°C; immunoprecipitated with anti-HA 3F10 and Protein G magnetic beads, 4°C, 90 min; blotted with anti-HA and anti-FLAG
T1 sequence (chain, N-glycosylation at N15): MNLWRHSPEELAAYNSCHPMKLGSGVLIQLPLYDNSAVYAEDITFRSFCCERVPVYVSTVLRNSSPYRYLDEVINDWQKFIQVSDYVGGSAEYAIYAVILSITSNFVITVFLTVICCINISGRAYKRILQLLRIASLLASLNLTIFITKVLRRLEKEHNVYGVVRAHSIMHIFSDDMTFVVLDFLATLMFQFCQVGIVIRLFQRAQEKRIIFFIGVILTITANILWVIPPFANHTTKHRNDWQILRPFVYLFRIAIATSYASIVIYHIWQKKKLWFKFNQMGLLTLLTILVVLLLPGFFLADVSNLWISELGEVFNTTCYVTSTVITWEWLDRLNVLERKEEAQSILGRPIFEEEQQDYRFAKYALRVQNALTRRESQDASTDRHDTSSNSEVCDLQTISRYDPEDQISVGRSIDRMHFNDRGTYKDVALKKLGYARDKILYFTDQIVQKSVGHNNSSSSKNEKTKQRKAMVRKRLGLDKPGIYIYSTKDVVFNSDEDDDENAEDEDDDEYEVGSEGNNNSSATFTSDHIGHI

[2] = biological target: T2, Rim21-N15Q-HA (S. cerevisiae) (UniProt P48565); assay: as above
T2 sequence: T1 sequence (chain, N-glycosylation at N15) with N15Q

binding [1]: binds | binding [2]: binds
B1: Dfg16-FLAG (protein, UniProt Q99234 1-619)
chain: MIIRLHFYYLLTLVYHLGLVGAYEKAARKRIQPPDLIPGPPGHKLGDERPPHYDHRPPYKKHIDNIPAYNLTDLIDDKLLNKYENSCTVNVLTGGFISLASNSWHLRAYNYTLNYPSFLIRCDNGSANPNFSHVLQDFVYDINNKFNVQDDSSKYIGKDPFPLGMIMITFASGCICVATWMLFLVVLLLPSDNHNRRNKVVHVYVLFSAIIRTVFLNETIAVIFDSQYHDDYQDASQFESFIVETAPYKICELVANILSDINWIYIVHYLQSNYGKPTWNWIPFKMKKGTHIIITVGCFLSLADNILFANLLWRKNLVVLKVFYKLIELLIYTIFISIICYFTWHNFAYILLPKTAEINTDGKCKTKLRILWENYHETIPLLAYNILIFILFYFTTIFFAAFTKHVRGWTFNFVHLLKVLITVNVWGLIGVLEKRELHISKKTVLGRKINNRDKFFANPTVNYYGEDLGKHLSAITLNRDLNTTKSNTTSHDSSSLVGSPSPTWKSPIERIRDRRRRHKIMKSENKFGQNPSFGSKSNGKPNTKTTLSKYRQLLRKPRRKTNSYEPKNGIGQNKEGSTVRPGADKHIRDSNYLATDISDNESMETELRTNHIYNYENSD
